Experimental data taken from PubChem BioAssay AID504467 (National Center for Advancing Translational Sciences (NCATS), 2011).
Screen size: about 330,000 compounds; about 7,700 (2.3%) were called active. The shares of active, inactive and inconclusive entries below differ from those in the screen. Calls come from the whole dose curve; as a rule, active = well fitted inhibition curve with a large enough effect; inconclusive = small, poorly fitted or top-dose-only effect, or effect the other way; inactive = flat fitted curve, though single readings scatter. Where the call is inconclusive, the potency comes from a doubtful curve fit.

test: qHTS screen for small molecules that inhibit ELG1-dependent DNA repair in human embryonic kidney (HEK293T) cells expressing luciferase-tagged ELG1; conditions: HEK293T ELG1-luciferase reporter, luminescence, 16 h, DNA damage induced by 5-fluorouridine; activity change, negative = inhibition: at 46.1 µM (top of the series); note: nearly all actives have a fitted effect of over 55% in size
Outline: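 DMSO vehicle served as the neutral condition. Each well held 2,000 cells given 5-fluorouridine plus compound; after 16 hr at 37 °C/5% CO2, ONE-Glo was added and luciferase measured 30 min later.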
% is set by controls: 0 for no effect and ±100 for the full control effect; potency is the fitted concentration of half-maximal effect.

Row | Compound | Potency | activity change, negative = inhibition
1 | O=C(Nc1ccc(-c2nc3ccccc3s2)cc1)C1=COCCO1 | inconclusive: 0.103 µM [activator, full curve] | –
2 | CC(O)CCC(=O)NCCNC(=O)CCC(C)O (stereo not given) | inconclusive: 16.4 µM [activator, partial curve, poor fit] | –
3 | Cc1cc(C(=O)Nc2ccc3c(c2)OCCO3)ccc1[N+](=O)[O-] | inconclusive: 1.03 µM [activator, partial curve] | –
4 | CC1SC(c2ccccc2)N(CC(O)c2ccc([N+](=O)[O-])cc2)C1=O (stereo not given) | inconclusive: 16.4 µM [inhibitor, partial curve, poor fit] | –
5 | CC(C)(C)c1ccc(OCCC(=O)OCC(=O)Nc2ccc(N3CCOCC3)cc2)cc1 | – | inactive: 9.58%
6 | Cc1cc(SCC(=O)OCC(=O)NCc2ccc3c(c2)OCO3)c(C)cc1Br | – | inactive: -2.96%
7 | CCOC(=O)c1nnn2c1nc(N1CCCCC1)c1ccccc12 | inconclusive: 20.6 µM [inhibitor, single point] | –
8 | CC(=O)Nc1ccc(NC(=O)Cn2c(=O)n(-c3ccccc3)c(=O)c3oc4ccccc4c32)cc1 | inconclusive: 29.1 µM [inhibitor, single point] | –
9 | O=C(NC1CC1)c1cc(=S)[nH]c2ccccc12 | inconclusive: 5.8 µM [inhibitor, single point] | –
10 | CCOc1ccccc1N1CCN(Cc2cccc(OC)c2OC)CC1 | – | inactive: -12.2%
11 | COc1cc(OC)cc(-c2c(-c3cccs3)c3cc(Br)ccc3n2C)c1 | – | inactive: 1.37%
12 | CC/C(=N\NC(=O)CNC(=O)/C=C/c1ccc(OC)cc1)c1ccccc1 | – | inactive: 14.9%
13 | O=C(Nc1cccc(C(F)(F)F)c1)c1ccc(N2CCNCC2)c([N+](=O)[O-])c1 | inconclusive: 29.1 µM [inhibitor, partial curve, poor fit] | –
14 | COc1ccccc1C(=O)OCC(=O)NC(=O)NC1CCCC1 | – | inactive: 18.3%
15 | O=C(Nc1ccc2c(c1)OCO2)N1CCN(c2ccc(F)cc2)CC1 | inconclusive: 14.6 µM [activator, partial curve] | –
16 | Cc1cccc(NC(=O)Cn2nnc3sc4c(c3c2=O)CC(C)(C)OC4)c1 | inconclusive: 23.1 µM [inhibitor, partial curve, poor fit] | –
17 | O=C(NC(=S)NC1CCCC1)c1ccccc1Br | – | inactive: 16.8%
18 | CCOC(=O)C1(Cc2ccccc2C(F)(F)F)CCN(Cc2ccc(COC)o2)CC1 | inconclusive: 18.3 µM [inhibitor, partial curve] | –
19 | COC(=O)c1ccc(COc2ccc(/C=N/O)cc2OC)o1 | – | inactive: -2.82%
20 | C=C[C@@H]1c2ccccc2N(S(=O)(=O)c2ccc(C)cc2)[C@H](c2ccccc2)C1(C#N)C#N | – | inactive: 19.9%
21 | CNC(=O)CSc1nnc(-c2ccco2)n1-c1ccc(C)cc1 | – | inactive: 12.5%
22 | CCOc1cc(Br)cc(C(c2c(C(=O)O)[nH]c3ccccc23)c2c(C(=O)O)[nH]c3ccccc23)c1O | inconclusive: 10 µM [inhibitor, single point] | –
23 | COc1cccc(OC)c1C(=O)Nc1nc(-c2ccccc2)cs1 | – | inactive: -10.8%
24 | O=C(NNc1c(Cl)cncc1Cl)c1sccc1Cl | – | inactive: -17.1%

Row | Compound | Potency | activity change, negative = inhibition
25 | CCc1nc(Nc2cccc(O)c2)c2oc3ccccc3c2n1 | inconclusive: 32.6 µM [inhibitor, single point] | –
26 | COc1ccc(C2=NOC3(CC(=O)N(c4ccc(C)cc4)C3=O)C2)cc1 (stereo not given) | inconclusive: 20.6 µM [activator, single point] | –
27 | O=C(Cc1coc2cc(O)ccc12)NNC(=O)c1cccs1 | – | inactive: 22.1%
28 | Cn1nc(NC(=O)C(F)(F)F)c2ncc(-c3ccc(Cl)cc3)nc21 | inconclusive: 20.6 µM [activator, partial curve] | –
29 | Nc1nonc1C(=O)NCCNc1ncccc1[N+](=O)[O-] | – | inactive: 10.2%
30 | Nc1ccccc1SCc1cn2ccccc2n1 | inconclusive: 3.66 µM [activator, full curve] | –
31 | COc1cc(-c2nnc3sc(-c4cccs4)nn23)cc(OC)c1OC | inconclusive: 0.92 µM [inhibitor, full curve] | –
32 | COc1ccc(C(=O)Nn2c(C3CCC3)nc3ccccc3c2=O)c(OC)c1 | inconclusive: 23.1 µM [inhibitor, partial curve, poor fit] | –
33 | COc1ccc(-c2cc(-c3ccc(OC)c(OC)c3)n[nH]2)c(O)c1 | inconclusive: 3.26 µM [activator, partial curve] | –
34 | O=C(NCc1ccc2c(c1)OCO2)C1CCN(S(=O)(=O)c2ccc(Br)s2)CC1 | inconclusive: 29.1 µM [inhibitor, single point] | –
35 | O=C(COc1ccc(Br)cc1)N1CCOCC1 | inconclusive: 8.2 µM [activator, partial curve, poor fit] | –
36 | CC1CCCCN1CC(=O)Nc1ccc2c(c1)OCO2 (stereo not given) | – | inactive: 0%
37 | CCOC(=O)c1c(C)n(C)c2ccc(OC)c(NC(=O)CN3CCN(C(=O)c4ccco4)CC3)c12 | inconclusive: 29.1 µM [inhibitor, single point] | –
38 | O=C(NC1CCCC1)c1ccc(Br)s1 | inconclusive: 25.9 µM [activator, partial curve, poor fit] | –
39 | Clc1ccc2c(c1)C(C1=NCCN1)c1ccccc1CS2 (stereo not given) | inconclusive: 1.3 µM [inhibitor, full curve] | –
40 | Cc1nn(C)c(C(=O)NC(=S)Nc2ccc([N+](=O)[O-])cc2)c1Cl | – | inactive: -22.7%
41 | Clc1ccccc1CN(Cc1ccco1)Cc1nnnn1C1CCCC1 | inconclusive: 29.1 µM [inhibitor, single point] | –
42 | COc1cc(/C=N/Nc2nc3ccccc3s2)ccc1O | inconclusive: 3.26 µM [activator, full curve] | –
43 | COc1ccccc1N(C)S(=O)(=O)c1ccc(Cl)c(C(=O)NNC(=O)c2ccccc2O)c1 | – | inactive: 26.2%
44 | CCOc1ccc(CCNC(=O)CS(=O)Cc2nc(-c3ccccc3C)oc2C)cc1OCC (stereo not given) | inconclusive: 16.4 µM [inhibitor, partial curve, poor fit] | –
45 | COc1cccc(C(=O)Nc2cc([N+](=O)[O-])ccc2N2CCN(C)CC2)c1 | – | inactive: -19.1%
46 | Cc1nc2ccccc2c(=O)n1/N=C/c1ccc(C(C)C)cc1 | inconclusive: 29.1 µM [inhibitor, single point] | –
47 | CCCCc1nnc(NC(=O)C2=COCCO2)s1 | inconclusive: 20.6 µM [activator, partial curve] | –
48 | CCOC(=O)CCCn1ncn2c(cc3occc32)c1=O | inconclusive: 23.1 µM [activator, partial curve] | –

Row | Compound | Potency | activity change, negative = inhibition
49 | CCOC(=O)N1CCN(S(=O)(=O)c2ccc3c4c(cccc24)C(=O)N3)CC1 | – | inactive: 4.39%
50 | C=CCn1cc(C(=O)NCc2ccco2)c(=O)c2cc(S(=O)(=O)N3CCCCCC3)ccc21 | active: 6.51 µM | –
51 | CC1(C)CCCC2=C1CC1C(=O)N(N)C(=O)C1C2 (stereo not given) | inconclusive: 1.16 µM [activator, partial curve, poor fit] | –
52 | c1ccc(Nc2ccccc2)cc1 | – | inactive: 1.63%
53 | CC(C)N(C(=O)[C@H]1C[C@H](CC(=O)NC(C)(C)C)C(=O)N2CCc3c([nH]c4cc(CCC(=O)N(C)C)ccc34)[C@]12C)C(C)C | inconclusive: 29.1 µM [activator, partial curve, poor fit] | –
54 | Cc1cccc(-n2ncc3c(N4CCCc5ccccc54)ncnc32)c1 | inconclusive: 2.59 µM [activator, partial curve] | –
55 | Cc1ccc(/C=C/C2=NN(Cc3ccc(Cl)c(Cl)c3)C(=O)CC2)cc1 | – | inconclusive: 19.8% [activator]
56 | CCCCC(=O)OCc1nc2ccccc2s1 | inconclusive: 29.1 µM [activator, single point] | –
57 | Cc1cc(C)c(NC(=O)Cn2c([N+](=O)[O-])cnc2C)c(C)c1 | – | inactive: 7.01%
58 | Cc1c(Cl)cccc1NC(=O)Cc1ccc([N+](=O)[O-])cc1 | inconclusive: 4.11 µM [inhibitor, full curve] | –
59 | COc1ccc(CN(C)C(C)C(=O)N(C)CC(=O)Nc2ccc(C)cc2)cc1F (stereo not given) | inconclusive: 0.0073 µM [inhibitor, full curve, poor fit] | –
60 | N#Cc1ccccc1OCC(=O)OCCCOC(=O)COc1ccccc1C#N | inconclusive: 14.6 µM [inhibitor, partial curve, poor fit] | –
61 | O=C(c1cccs1)C1CCCN(Cc2nc(Cc3ccccc3F)no2)C1 (stereo not given) | inconclusive: 29.1 µM [inhibitor, single point] | –
62 | COC(=O)/C(C#N)=C/c1c(N2CCN(Cc3ccc4c(c3)OCO4)CC2)nc2c(C)cccn2c1=O | inconclusive: 23.1 µM [inhibitor, partial curve] | –
63 | Cc1ccc(S(=O)(=O)NCCSc2nnnn2C)cc1 | inconclusive: 5.01 µM [activator, partial curve, poor fit] | –
64 | O=C(NCC1CCCO1)C(c1cccs1)N(Cc1cccs1)C(=O)c1ccc(-c2ccccc2)[nH]1 (stereo not given) | inconclusive: 23.1 µM [inhibitor, single point] | –
65 | S=C(NC1CC1)N1CCCc2ccccc21 | inconclusive: 16.4 µM [activator, partial curve, poor fit] | –
66 | O=c1c2c3c(sc2nc(NCCO)n1CCc1ccccc1)CCCCC3 | inconclusive: 29.1 µM [inhibitor, single point] | –
67 | CCOC(=O)Cc1csc(NC(=O)CCN2C(=O)c3ccccc3C2=O)n1 | – | inactive: -5.14%
68 | Nc1cc(C(=O)O)ccc1N1CCCCC1 | inconclusive: 0.206 µM [inhibitor, single point] | –
69 | Cc1nnc(Nc2ccc3c(c2)OCO3)c2ccccc12 | inconclusive: 10.3 µM [activator, partial curve] | –
70 | CCOC(=O)c1ccc(COc2ccc(C(C)C)cc2)o1 | inconclusive: 2.31 µM [activator, full curve] | –

6 consecutive entries already listed:
Row | Compound | Potency | activity change, negative = inhibition
51 | CC1(C)CCCC2=C1CC1C(=O)N(N)C(=O)C1C2 (stereo not given) | inconclusive: 1.16 µM [activator, partial curve, poor fit] | –
52 | c1ccc(Nc2ccccc2)cc1 | – | inactive: 1.63%
53 | CC(C)N(C(=O)[C@H]1C[C@H](CC(=O)NC(C)(C)C)C(=O)N2CCc3c([nH]c4cc(CCC(=O)N(C)C)ccc34)[C@]12C)C(C)C | inconclusive: 29.1 µM [activator, partial curve, poor fit] | –
54 | Cc1cccc(-n2ncc3c(N4CCCc5ccccc54)ncnc32)c1 | inconclusive: 2.59 µM [activator, partial curve] | –
55 | Cc1ccc(/C=C/C2=NN(Cc3ccc(Cl)c(Cl)c3)C(=O)CC2)cc1 | – | inconclusive: 19.8% [activator]
56 | CCCCC(=O)OCc1nc2ccccc2s1 | inconclusive: 29.1 µM [activator, single point] | –
